Data on two molecules can be found in patent US20200079842A1.

Experiment [1] has as its target FLAG-tagged netrin-1 (Adipogen) (human) (UniProt O95631). Briefly: ELISA-type assay, netrin-1 coated on the plate (legend paragraph 28: FLAG-tagged Netrin-1, APOTECH; Example 3: His-tagged Netrin-1, R&D), anti-mouse IgG-HRP, luminescence. A general note: In an ELISA, binding on a coated surface is turned into a signal by an enzyme label.
The target is the same in experiment [2]. Briefly: competition ELISA: FLAG-tagged netrin-1 with rising 4C11 on coated UNC5B-Fc, bound netrin-1 detected with anti-FLAG-HRP, luminescence.
Experiment [3] concerns the target netrin-1 mutant K358L (human) (UniProt O95631). The experiment is described as follows: in vitro binding assay of netrin-1 mutants.

Results are given in words; binding and its absence hold for the method and conditions named. Some binding calls cover weakened binding; strength is not graded here.

B1: murine 4C11 (IgG1) antibody (antibody, V domains shown)
VH: QAYLQQSGAELVRPGASVKMSCKASGYTFTSYNMHWVKQTPRQGLEWIGAIYPGNGDTSYNQKFKGKATLTVDKSSSTAYMQLSSLTSEDSAVYFCARGGTGFAYWGQGTLVTVSA
VL: SIVMTQTPKFLLVSAGDRVTITCKASQSVSNDVAWYQQKPGQSPKLLIYYASNRYTGVPDRFTGSGYGTDFTFTISTVQAEDLAVYFCQQDYSSPWTFGGGTKLEIKR
Turning to B1, the binding entry in experiment [1] and in experiment [2] was “binds” each time.

B2: HUM03 (antibody, human IgG1, V domains shown)
VH: QVQLQQSGPGLVKPSQTLSLTCAISGYTFTSYNMHWVRQATGQGLEWMGAIYPGNGDTSYNQKFKGRLTISKDTSKNQVVLTMTNMDPVDTATYYCARGGTGFAYWGQG
VL: DIQMTQSPSSLSASVGDRVTITCKASQSVSNDVAWYQQKPGQAPRLLIYYASNRYTGIPPRFSGSGYGTDFTLTINNIESEDAAYYFCQQDYSSPWTFGQG
On to B2, for which the binding entry in experiment [3] is “binds”.
